Experimental data published in patent publication US11021442B2, “Process for the preparation of freeze-dried 2-[(3-aminopropyl)amino] ethanethiol formulation” (CLEVEXEL PHARMA, priority 2016, dated 2021).

Experiment: Conversion of disulfide WR-33278 into aminothiol by DTT in gel
Conditions: room temperature

With O[C@H](CS)[C@H](O)CS (racemic) [DTT, dithiothreitol] the “Amifostine, purity profile 30 min after addition of DTT” value (shortened to “Amifostine, purity profile 30 min”) (5 mM DTT) was 5.0 % Area, the “Aminothiol, purity profile 30 min after addition of DTT” value (shortened to “Aminothiol, purity profile 30 min”) (5 mM DTT) was 50.7 % Area and the “Disulfide, purity profile 30 min after addition of DTT” value (shortened to “Disulfide, purity profile 30 min”) (5 mM DTT) was 44.3 % Area. The “Amifostine, purity profile 30 min” value (41 mM DTT) was 6.2 % Area, the “Aminothiol, purity profile 30 min” value (41 mM DTT) was 93.4 % Area and the “Disulfide, purity profile 30 min” value (41 mM DTT) was 0.4 % Area. The “Amifostine, purity profile 30 min” value (81 mM DTT) was 7.0 % Area, the “Aminothiol, purity profile 30 min” value (81 mM DTT) was 90.5 % Area and the “Disulfide, purity profile 30 min” value (81 mM DTT) was 2.6 % Area.
